Experimental data: the supplement of paper PMC3334620
Whole data set: some 33,000 sequences, median “E-score (-0.5 to 0.5)” near -0.016, cut for the highest 2% near 0.3. This is one part of the list.

What follows are sequences tested against T1, Yer184c (UniProt P39961) (assay: PBM E-score (8-mer binding enrichment) (E-score (-0.5 to 0.5)); higher = stronger / more preferred TF binding). Settings: protein concentration: 100 nM; construct: GST-full length.
T1 sequence: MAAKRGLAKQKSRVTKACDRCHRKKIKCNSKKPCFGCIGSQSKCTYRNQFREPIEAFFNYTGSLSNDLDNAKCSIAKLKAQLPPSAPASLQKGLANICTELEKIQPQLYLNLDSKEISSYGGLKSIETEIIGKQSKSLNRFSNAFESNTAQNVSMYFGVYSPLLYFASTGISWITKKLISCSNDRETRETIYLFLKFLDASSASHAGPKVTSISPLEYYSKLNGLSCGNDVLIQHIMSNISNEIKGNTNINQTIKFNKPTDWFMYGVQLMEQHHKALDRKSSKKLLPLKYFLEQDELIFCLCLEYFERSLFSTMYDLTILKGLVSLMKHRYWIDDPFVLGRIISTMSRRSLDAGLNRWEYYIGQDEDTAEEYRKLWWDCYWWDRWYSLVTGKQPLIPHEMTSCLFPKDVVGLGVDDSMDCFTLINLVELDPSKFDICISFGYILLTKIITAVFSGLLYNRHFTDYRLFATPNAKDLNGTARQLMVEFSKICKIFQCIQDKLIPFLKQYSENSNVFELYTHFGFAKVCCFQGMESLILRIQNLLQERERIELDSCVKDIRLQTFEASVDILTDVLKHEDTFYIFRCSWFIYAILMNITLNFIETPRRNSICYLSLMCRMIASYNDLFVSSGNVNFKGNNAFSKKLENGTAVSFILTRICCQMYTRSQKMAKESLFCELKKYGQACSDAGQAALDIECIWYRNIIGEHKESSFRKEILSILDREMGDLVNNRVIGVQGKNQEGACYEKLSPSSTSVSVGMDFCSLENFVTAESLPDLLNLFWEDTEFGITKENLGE
Procedure: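 Universal 'all 10-mer' protein binding microarrays (Agilent AMADID 015681) probed with GST-tagged S. cerevisiae TFs (full-length or DBD) made by in vitro transcription/translation (PURExpress), about 100-200 nM. Bound TF was detected with fluorescent anti-GST. Each ungapped 8-mer (which stands for itself and its reverse complement) is scored by the PBM enrichment score (E-score), a modified Wilcoxon-Mann-Whitney statistic from -0.5 to +0.5, computed with the Universal PBM Analysis Suite. Scale: above 0.35 generally sequence-specific binding.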

| Sequence | PBM E-score |
| --- | --- |
| GGAAACTA | 0.0665 |
| ATTTCGCG | 0.259 |
| AACTCTGC | -0.213 |
| CGAGGCAG | -0.0339 |
| ATTTCAAC | 0.167 |
| TCATGCGA | 0.00425 |
| CGTGGTCC | -0.0982 |
| CCTATGAC | -0.242 |
| AAAATGCT | 0.106 |
| GGAGTTAA | 0.0757 |
| ATCAGTGA | -0.0339 |
| CGATGTCC | 0.15 |
| CTGGCGAA | -0.131 |
| CCACAGGG | -0.326 |
| AAGTCGAG | -0.158 |
| AGAAGGTA | 0.0854 |
| AGTTGAGC | -0.12 |
| ATCTCGTG | -0.103 |
| ATTCCCCC | -0.2 |
| TGGTTTAA | 0.0779 |
| CACGCCCC | -0.191 |
| ATACGCAG | -0.155 |
| ATCACTCC | -0.0246 |
| GTGCAGTA | 0.0537 |
| GAGCTGGA | -0.0682 |

| Sequence | PBM E-score |
| --- | --- |
| GCCAACAC | 0.0745 |
| CAATCTTC | 0.151 |
| CCCGTACA | -0.271 |
| ACGCTTCT | -0.125 |
| GATAGCTA | -0.0392 |
| CGACTGAC | -0.187 |
| GTACCAGA | -0.104 |
| CAAATATC | 0.223 |
| CCGCGCAA | 0.0053 |
| CGATTCGA | 0.181 |
| AATGCCCC | -0.229 |
| ACACTAGT | -0.0708 |
| ATGGCTTG | -0.123 |
| ATTTACTG | 0.105 |
| AATTGGGA | 0.0601 |
| AACCTGTG | -0.147 |
| TAACGCTA | -0.118 |
| AACAATGT | 0.146 |
| AGATAGCG | -0.141 |
| AACGACCG | 0.0091 |
| AGTAAATA | 0.167 |
| ATCTCTGC | -0.00621 |
| GTTTGCAA | 0.165 |
| AGGTTGTC | -0.228 |
| CGACGCTC | 0.0205 |

| Sequence | PBM E-score |
| --- | --- |
| ACGCTGTC | -0.159 |
| AAGGCCTC | -0.212 |
| ATATTTTC | 0.202 |
| ACTCAAGA | -0.17 |
| CTGCACAC | -0.207 |
| CTGGGCCC | -0.166 |
| CCTAGTCG | -0.181 |
| CTACGAGC | -0.197 |
| AACTTGGG | -0.171 |
| GACCGCCA | -0.12 |
| CGTGAGTA | 0.0198 |
| AAGCTCGC | 0.0328 |
| CACCACCC | -0.132 |
| CAACCGCA | 0.0386 |
| ATGATCTC | -0.0245 |
| CGTACTTA | -0.058 |
| CACTCTGG | -0.0982 |
| AGCCAATA | -0.128 |
| AAATAGTC | -0.0425 |
| GAGAAGGC | -0.147 |
| CGAGGTGA | 0.15 |
| GGAATCTA | 0.056 |
| CCATGGGG | -0.194 |
| CACTCCCC | -0.0415 |
| AAGCTAAC | -0.0155 |

A different layout for some results above:
Sequence | PBM E-score
ACACTAGT | -0.0708
ATATTTTC | 0.202

More results:

| Sequence | PBM E-score |
| --- | --- |
| ATATTGAG | 0.0479 |
| CTCCCTGA | -0.32 |
| CACCAAAG | 0.0906 |
| CTACCTGA | -0.114 |
| AATTGCCT | 0.0752 |
| CCGTCTTC | 0.0628 |
| AGACCCAT | -0.227 |
| ACGGAGAA | 0.171 |
| CGGGAGCA | 0.0569 |
| CACTTTGC | 0.0883 |
| GGTGCAGA | -0.206 |
| ATGAACCC | 0.0487 |
| TATGTCCA | -0.102 |
| GCAGCAAC | 0.153 |
| AGCGCTGG | -0.0341 |
| AGGCCGAT | 0.184 |
| AACTTCCA | 0.0737 |
| AATCCATT | 0.186 |
| CAATTTCC | 0.189 |
| ATACATCC | 0.069 |
| GATGCAGC | 0.0471 |
| CAACTAGG | -0.0391 |
| ATTACAAA | 0.161 |
| TCACCACA | 0.00117 |
| CAGGTATC | -0.00191 |

At a glance, part of the list above.

| Sequence | PBM E-score |
| --- | --- |
| CCGTCTTC | 0.0628 |
| AGACCCAT | -0.227 |

Going on with the list.

| Sequence | PBM E-score |
| --- | --- |
| AACAATAC | 0.0929 |
| CATTTTTC | 0.194 |
| CTTCGCAC | -0.0518 |
| TGGAACAA | 0.195 |
| AATGCGCA | 0.208 |
| AGTTACGG | 0.0354 |
| GTCTCATA | -0.0146 |
| GTGCGTAA | -0.0289 |
| ACAAGAGC | -0.0386 |
| CAGACAGC | -0.102 |
| ATGTATTG | 0.14 |
| AATTCCTG | -0.118 |
| AAATCGAG | 0.103 |
| ACCAGGGG | -0.349 |
| ACTAATAC | 0.262 |
| CCATGTAC | -0.139 |
| CGGCCTTC | 0.33 |
| GGTTTGTA | 0.0405 |
| CGCTGCAC | -0.175 |
| GCCGTAAC | 0.111 |
| CTGTTAAA | -0.0216 |
| CAAGCCAC | -0.396 |
| AGACCCTA | -0.199 |
| AAATACGC | 0.0781 |
| AAGTCTTC | -0.0968 |

| Sequence | PBM E-score |
| --- | --- |
| ATTCAGCG | 0.0517 |
| CGGCACAA | 0.177 |
| AAATCCGC | -0.00733 |
| GACCCACA | 0.0155 |
| AGATGTTC | 0.00961 |
| ACAATTCG | 0.093 |
| ATACGAAA | 0.188 |
| CCGCCCGA | 0.148 |
| TCGAATCA | -0.0385 |
| GCCCACAA | -0.13 |
| ACGGCACC | -0.0473 |
| CATTCCTA | -0.098 |
| ACTCCTTA | -0.154 |
| AAGTATAA | 0.0494 |
| CAATGGCG | -0.0265 |
| TCGAGGCA | 0.0664 |
| AGCTCGAA | 0.178 |
| TCATTCCA | -0.0133 |
| GTGCCGCA | 0.232 |
| CAGCCGGA | 0.392 |
| AATACTGC | 0.0826 |
| CAGCGGTA | 0.0738 |
| CATAGAAG | 0.107 |
| ACGCCGCA | 0.0659 |
| TCCCTCCA | -0.214 |

| Sequence | PBM E-score |
| --- | --- |
| AGCCTAGA | -0.133 |
| CGTAGGGC | -0.264 |
| AATTGACA | 0.0558 |
| GAAATGGC | -0.114 |
| AAAAGCGC | 0.111 |
| CAGTTACC | -0.0418 |
| ACGGGACT | -0.0211 |
| GATAAATC | 0.238 |
| ACCTAAGT | 0.101 |
| AACTAACC | 0.256 |
| ATTGTCAA | -0.0116 |
| CGAGAGCC | -0.151 |
| GACTCCCC | -0.236 |
| GCGGCGTA | -0.0609 |
| AACCCCAC | -0.352 |
| CAAGCACG | -0.00337 |
| AACCCCAT | -0.129 |
| ACCGTCAT | -0.0508 |
| ACCACTAG | -0.229 |
| CCTCGACG | -0.0343 |
| CGGCCCAG | 0.225 |
| AACCTTGT | -0.322 |
| CAGGGGTA | -0.243 |
| CGCTAGCG | -0.28 |
| TCTTCCCA | -0.159 |

| Sequence | PBM E-score |
| --- | --- |
| GCGACAGC | -0.104 |
| AAGATGCT | 0.00593 |
| AAGAATGA | 0.027 |
| CCCGTCCG | -0.128 |
| ACTCCAGC | -0.279 |
| CCAATCCA | -0.0477 |
| AAACTACC | 0.1 |
| ATTAATTA | 0.155 |
| AGGAGTGA | -0.116 |
| ACGTGGCC | -0.288 |
| CGTTTCGA | 0.0222 |
| CAACCCGA | 0.0679 |
| ACATGGCA | -0.0125 |
| ACATTGTG | -0.201 |
| ACGCGAAG | -0.039 |
| AAACACGG | 0.13 |
| AGAGGGGG | -0.432 |
| AAAGCTGG | -0.112 |
| AGAATTTG | 0.0863 |
| GTGTCAAC | -0.0844 |
| GTAGGAAA | -0.0963 |
| ATATATAC | 0.317 |
| AGCTCCCG | -0.00473 |
| CATTCAAA | 0.246 |
| GCTCCGTA | 0.205 |

An excerpt of these results, as comma-separated lines:
Sequence,PBM E-score
ATGAACCC,0.0487
TATGTCCA,-0.102
GCAGCAAC,0.153
AGCGCTGG,-0.0341
AGGCCGAT,0.184
AACTTCCA,0.0737

The listing continues:

| Sequence | PBM E-score |
| --- | --- |
| ATGCAACA | -0.111 |
| CACAGTCG | -0.078 |
| AACCAGGG | -0.242 |
| TATATCCA | 0.00153 |
| AATTGTCT | 0.0418 |
| TACCGATA | 0.213 |
| AGGGTTGG | -0.0955 |
| CAATTTTA | 0.148 |
| AACCCAGC | -0.121 |
| GCGGACAC | 0.154 |
| GCCTATAA | -0.157 |
| GCCTCAGA | -0.0395 |
| CGAACTCC | 0.223 |
| CAACCCCG | -0.209 |
| GAAGATGC | -0.209 |
| AATACAAA | 0.216 |
| ACGCGGTG | -0.0857 |
| CCGATATC | 0.207 |
| AAGGGCTG | -0.171 |
